Measurements from the supplement of paper PMC11732987, “Enantioselective OTUD7B fragment discovery through chemoproteomics screening and high-throughput optimisation” (Communications Chemistry, 2025).
This is one part of the list. The data scatter; read single values as rough.

Chains of the proteins cited; added tags and fusions are not shown. Lines headed by an entry give the natural chain unless they say otherwise; changes in a name come on top.
UniProt O60307: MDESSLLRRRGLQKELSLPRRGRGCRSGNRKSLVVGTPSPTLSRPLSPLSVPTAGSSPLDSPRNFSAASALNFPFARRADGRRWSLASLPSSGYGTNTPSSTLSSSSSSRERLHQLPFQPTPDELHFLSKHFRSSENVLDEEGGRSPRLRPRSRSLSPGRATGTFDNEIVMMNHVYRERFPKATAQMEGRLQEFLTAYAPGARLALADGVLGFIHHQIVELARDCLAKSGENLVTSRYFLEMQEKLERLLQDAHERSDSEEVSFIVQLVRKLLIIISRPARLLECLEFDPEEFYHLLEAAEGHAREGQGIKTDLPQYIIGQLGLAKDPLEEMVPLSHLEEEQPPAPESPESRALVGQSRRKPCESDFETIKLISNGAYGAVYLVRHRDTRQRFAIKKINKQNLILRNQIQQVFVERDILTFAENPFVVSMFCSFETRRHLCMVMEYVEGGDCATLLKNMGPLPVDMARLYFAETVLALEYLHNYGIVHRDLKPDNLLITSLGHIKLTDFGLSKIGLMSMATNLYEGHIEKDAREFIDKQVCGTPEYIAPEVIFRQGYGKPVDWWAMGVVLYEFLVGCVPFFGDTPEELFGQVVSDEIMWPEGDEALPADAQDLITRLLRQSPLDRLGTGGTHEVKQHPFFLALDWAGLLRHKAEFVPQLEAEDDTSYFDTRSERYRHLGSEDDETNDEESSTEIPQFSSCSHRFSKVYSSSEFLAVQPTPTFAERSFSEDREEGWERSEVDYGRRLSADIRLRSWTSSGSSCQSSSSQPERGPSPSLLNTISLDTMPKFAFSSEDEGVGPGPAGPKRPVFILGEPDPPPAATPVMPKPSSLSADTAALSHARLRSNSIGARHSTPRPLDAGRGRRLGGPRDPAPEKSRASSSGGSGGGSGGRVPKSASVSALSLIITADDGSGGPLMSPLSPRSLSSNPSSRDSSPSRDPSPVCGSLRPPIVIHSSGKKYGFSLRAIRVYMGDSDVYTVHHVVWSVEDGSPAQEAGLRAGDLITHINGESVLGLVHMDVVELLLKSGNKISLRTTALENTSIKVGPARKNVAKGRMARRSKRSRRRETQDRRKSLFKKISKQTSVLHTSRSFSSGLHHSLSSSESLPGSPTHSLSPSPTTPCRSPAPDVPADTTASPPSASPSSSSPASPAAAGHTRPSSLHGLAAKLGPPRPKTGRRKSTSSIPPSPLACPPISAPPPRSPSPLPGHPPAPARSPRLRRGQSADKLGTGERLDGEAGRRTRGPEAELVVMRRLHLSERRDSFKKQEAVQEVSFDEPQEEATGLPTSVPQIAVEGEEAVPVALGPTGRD

Target: T1, MAST3 C700 (UniProt O60307)
T1 sequence (whole entry): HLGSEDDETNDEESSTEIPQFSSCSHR
Assay: log2 mean competition ratio of IA-DTB cysteine labelling (DMSO/compound) (log2 ratio); higher = stronger cysteine engagement by compound
Details: 50 µM; treatment time: 4 h; cell line lysate: HEK293T
Experimental: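 IA-DTB competitive cysteine chemoproteomics in HEK293T RIPA lysate. Lysates were treated with compound 29 or 30 at 50 or 200 µM for 4 h, then IA-DTB (500 µM, 1 h), trypsin-digested, NeutrAvidin-enriched and analysed by diaPASEF. Competition ratio = intensity DMSO / intensity compound (n=4 treated, n=64 DMSO); binding: mean log2 CR ≥ 1 and p ≤ 0.05 plus QC filters. Target is the cysteine site.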

SMILES | log2 mean competition ratio
O=C(CCl)N[C@@H]1CCCc2ccccc21 | 0.0498
O=C(CCl)N[C@H]1CCCc2ccccc21 | 0.105

Same assay, conditions: 200 µM; treatment time: 4 h; cell line lysate: HEK293T

SMILES | log2 mean competition ratio
O=C(CCl)N[C@@H]1CCCc2ccccc21 | -0.0636
O=C(CCl)N[C@H]1CCCc2ccccc21 | -0.0869
